Source: publication PMC12040169 (PLOS Biology, 2025)
This is one part of the list.

tested on: T1, CTL2-GFP (C. trachomatis L2/434/Bu, GFP-expressing); parameters: species or system HeLa; Intracellular C. trachomatis growth in HeLa cells, bulk GFP fluorescence relative to DMSO; details: bulk GFP, single well; 28.5 h, 10 µM; inhibitor
T1 construct: L2/434/Bu, GFP-expressing

SMILES | % of control remaining [%]
COc1c(S(=O)(=O)N2CCN(Cc3ccc4c(c3)OCO4)CC2)ccc(Cl)c1Cl [CBK074423] | 110.855
CCn1ncc(CN2CCN(C(=O)c3nn(C)cc3C(=O)O)CC2)c1C [CBK286870] | 128.675
CC1CCN(CCNC(=O)CCc2nc3ccc(Cl)cc3[nH]2)CC1 [CBK281599] | 137.247
O=C(NCCCN1CCOCC1)C1CCCN1S(=O)(=O)c1ccc(Cl)cc1 (centres unmarked) [CBK269944] | 135.547
CCCC(=O)N1CCC(c2nc3ccc(F)cc3cc2N)CC1 [CBK284655] | 139.87
Cc1cc(=O)[nH]c(SCc2nc3ccccn3c2Br)n1 [CBK296063] | 71.8417
O=[N+]([O-])c1ccc(NCCCNS(=O)(=O)c2ccc3ccccc3c2)c(Cl)c1 [CBK262006] | 115.276
COc1ccccc1CN1CCC(Cc2ccccc2-c2ccccc2)(C(N)=O)CC1 [CBK285719] | 130.504
OC(CN1CCC(O)(c2cccc(C(F)(F)F)c2)CC1)c1ccccc1 (centres unmarked) [CBK286324] | 95.8167
COc1ccc(OCC(=O)Nc2ccc3c(c2)nc2n3CCN(Cc3ccccc3)C2)cc1 [CBK266989] | 153.151
Fc1ccc(-c2cncc(Nc3cccc(C(F)(F)F)c3)n2)c(F)c1 [CBK065763] | 192.176
Cn1c(SCc2cccc3ccccc23)nnc1-c1ccc(NC(=O)/C=C/c2ccccc2)cc1 [CBK265034] | 116.85
CC1Cc2cc(-c3cncn3CC(=O)NC(C)(C)C)ccc2N1C (centres unmarked) [CBK281699] | 127.789
O=c1c([N+](=O)[O-])c(O)c2ccccc2n1Cc1ccccc1 [CBK291182] | 149.393
C=C(C)Cn1c(-c2ccc(N)cc2)nc2ccccc21 [CBK287581] | 120.777
C[C@@H](Nc1cncc(-c2ccccc2CO)n1)c1ccccc1 [CBK065543] | 150.522
COc1nc2ccn(CC(O)CO)c(=O)c2cc1C#N (centres unmarked) [CBK307251] | 114.695
Cc1ccc(C(=O)N2CCC(c3nc4ccccc4s3)CC2)cc1NS(C)(=O)=O [CBK254629] | 147.378
Cc1cc(C)n(-c2ccnc(NCCc3cccnc3)n2)n1 [CBK288615] | 112.376
CC1=C[C@@H](CO)[C@H](C(C)C)C[C@H]1CC(=O)N1CCN(CCO)CC1 [CBK289217] | 135.193
O=C(Cn1cc(-c2ccc(CN3CCCCC3)cc2)nn1)NCc1ccc(C2CCC2)cc1 [CBK167547] | 106.328
c1cc(-c2cnc(N3CCOCC3)c3nccn23)c2cccnc2c1 [CBK091270] | 105.512
CNCc1cc(Br)c(OCC(=O)Nc2ccccc2OC)c(OC)c1 [CBK107772] | 110.124
O=C(Nc1cc(Cl)ccc1C(=O)NC1CCC(O)CC1)c1cccs1 (centres unmarked) [CBK306186] | 156.571
Cc1c(C(=O)Nc2ccc(Cl)cc2)sc2c1C(c1cccnc1)CC(=O)N2 (centres unmarked) [CBK288233] | 45.701
CCOC(=O)Nc1ccc2c(c1)N(C(=O)CN1CCOCC1)c1ccccc1CC2 [CBK261286C] | 95.6924
Cc1nn(CC(=O)OC2CCCCC2)c(=O)c2cc3ccsc3n12 [CBK284058] | 139.256

A run of entries of the results above:
SMILES | % of control remaining [%]
COc1c(S(=O)(=O)N2CCN(Cc3ccc4c(c3)OCO4)CC2)ccc(Cl)c1Cl [CBK074423] | 110.855
CCn1ncc(CN2CCN(C(=O)c3nn(C)cc3C(=O)O)CC2)c1C [CBK286870] | 128.675
CC1CCN(CCNC(=O)CCc2nc3ccc(Cl)cc3[nH]2)CC1 [CBK281599] | 137.247
O=C(NCCCN1CCOCC1)C1CCCN1S(=O)(=O)c1ccc(Cl)cc1 (centres unmarked) [CBK269944] | 135.547
CCCC(=O)N1CCC(c2nc3ccc(F)cc3cc2N)CC1 [CBK284655] | 139.87
Cc1cc(=O)[nH]c(SCc2nc3ccccn3c2Br)n1 [CBK296063] | 71.8417

(next part)

SMILES | % of control remaining [%]
CCc1nn2c(=O)cc(CNc3ccccc3CN(C)C(C)=O)nc2s1 [CBK305604] | 103.77
Cn1c(=O)c2c(nc(Nc3ccc(Cl)cc3Cl)n2CC(=O)O)n(C)c1=O [CBK286792] | 128.509
CCn1cc(CN2CCN(C(=O)c3csc(C(C)C)c3)CC2)cn1 [CBK282044] | 129.975
C=CCNc1nccnc1-c1cc(OC)c(OC)c(OC)c1 [CBK036872] | 96.877
O=C(Nc1cc(Cl)ccc1C(=O)O)c1ccc2c(c1)C(=O)N(Cc1cccnc1)C2=O [CBK266455] | 146.645
CCOC(=O)N(C)c1c(CC)nc2ccc(C(=O)Nc3cc(-c4ccccc4)ccc3OC)cn12 [CBK145478] | 141.287
CSc1nc(NC(=O)Cc2c[nH]c3ccccc23)cc(N2CCNCC2)n1 [CBK050265T] | 100
OCC1CCN(Cc2ccc(OC3CCCC3)cc2)C1 (centres unmarked) [CBK282929] | 84.5197
O=C1CN(S(=O)(=O)c2ccc(NS(=O)(=O)c3ccc4ccccc4c3)cc2)CC(=O)N1 [CBK262513] | 122.42
Cc1ccc2c(c1)C(c1c[nH]c3ccccc13)(c1c[nH]c3ccccc13)C(=O)N2C [CBK266401] | 190.239
O=C(NCc1ccccc1OC1CCNC1)c1ccc(-c2cccc(C(F)(F)F)c2)o1 (centres unmarked) [CBK034151T] | 102.468
Cc1cc(N2CCC(N3CCN(C)CC3)CC2)nc(N)n1 [CBK167964] | 117.588
O=S(=O)(Nc1ccc(N2CCOCC2)cc1)c1cccc(OC(F)(F)F)c1 [CBK296759] | 125.242
Cc1cc(C)n(CC2CCCCN2Cc2ccccn2)n1 (centres unmarked) [CBK304853] | 117.924
O=C(NC1CCCC1)c1ccc(-n2ccnc2)c(-n2cccc2)c1 [CBK285368] | 118.893
CCOC(=O)[C@H]1CC[C@]2(CC1)CN(C)C(=O)c1ccccc1O2 [CBK284848] | 93.4923
Cc1cccc(NCC(O)Cn2c3ccc(Br)cc3c3cc(Br)ccc32)c1 (centres unmarked) [CBK261419] | 100.289
COc1ccc([C@@H](O)[C@H]2CCCNC2)cc1 [CBK282298] | 139.141
COCc1nnc(Sc2nccnc2NC(C)C)s1 [CBK115204] | 128.23
CC(C)Cn1c(=O)c2c(nc3n2CCS3)n(C)c1=O [CBK307109] | 123.555
O[C@H]1[C@H](NCc2ccccn2)[C@H]2CO[C@H](O2)[C@@H]1N1CCC(Cc2ccccc2)CC1 [CBK288814] | 121.583
COC(=O)c1ccc(OCCn2nc(C)c(C)c(C#N)c2=O)cc1 [CBK305676] | 144.375
Cc1cc(C)n(-c2nc3cc(Cl)ccc3nc2Nc2ccc3c(c2)OCO3)n1 [CBK268380] | 142.557
COc1ccc(C2C(C(C)=O)=C(O)C(=O)N2CCC(=O)O)cc1 (centres unmarked) [CBK263763] | 110.458
O=C(NC1CCNCC1)c1cc2ccccc2[nH]1 [CBK168609] | 124.481
O=C(CSc1ncccn1)N/N=C/c1ccncc1 [CBK262401] | 117.959
OCCn1ncc2c(NCc3cccc(Cn4ccnc4)c3)ncnc21 [CBK304184] | 46.0785

SMILES | % of control remaining [%]
Cc1cc(C)cc(N(CCC#N)C(=O)CSc2nnc[nH]2)c1 [CBK296955] | 118.628
Cn1cc(CN2CCCN(C(=O)c3cc4ccccc4[nH]3)CC2)cn1 [CBK304920] | 69.8061
CCNc1cc(-c2ccc(OC)cc2)ncn1 [CBK090883] | 172.478
O=c1oc2ccccc2c(NCCN2CCCCC2)c1[N+](=O)[O-] [CBK218805] | 112.262
O=C(Nc1cccc2ccccc12)N1CCC(n2c(=O)[nH]c3ccccc32)CC1 [CBK149858] | 96.6412
CCCC(=O)Nc1sc(C)c(C)c1C(=O)Nc1ccccc1OC [CBK262455] | 89.9053
CC(=O)Nc1nc2ccc(S(=O)(=O)N3CCCC3)cc2s1 [CBK287604] | 135.649
[O-][S+]1c2ccccc2Oc2ccccc21 [CBK027634] | 136.809
Cc1ccc(NC(=O)NC(=O)C2CCN(CCc3ccc(F)cc3)CC2)cc1Cl [CBK035047] | 128.616
CC1(C)NC(=O)N(CC(O)CN2CCCC2)C1=O (centres unmarked) [CBK264558] | 112.43
Fc1cccc(Cl)c1CN1CNC(=S)NC1 [CBK006480] | 150.953
CC(C)c1ccc(OCCN2CCNCC2)cc1 [CBK266024C] | 121.312
CCCCC(=O)Nc1ccc(C(=O)N2CCN(C)CC2)cc1 [CBK304662] | 113.606
O=C1NC(=O)C(CC(=O)N2CCN(Cc3nc4ccccc4s3)CC2)S1 (centres unmarked) [CBK295654] | 138.268
Cc1ccccc1NCC(=O)N/N=C\c1cc(Br)c(O)c(Br)c1 [CBK262120] | 105.59
Cc1cccc(OCCNC(=O)CSc2n[nH]c(=O)n2C2CC2)c1 [CBK295599] | 120.677
CN(C)Cc1ccccc1-n1ncc(-c2ccc(Br)cc2F)n1 [CBK112924] | 121.53
CCc1c(C(=O)Nc2ccc3nc(C)cn3c2)cnc2cc(O)nn12 [CBK291178] | 115.006
COc1ccc2occ(C(=O)c3ccc(N)cc3)c2c1 [CBK111303] | 117.084
CS(=O)(=O)N1CC2(CCN(CCCOc3ccccc3)CC2)c2ccccc21 [CBK115457T] | 110.498
CC1CCc2c(sc3ncnc(SCC(=O)N(C)C)c23)C1 (centres unmarked) [CBK305946] | 98.7386
CCc1c(C)nc2c(C(=O)NCc3cc(C)on3)cnn2c1C [CBK162150] | 120.612
O=C(CCc1c[nH]c2ccccc12)OCc1nnc(-c2ccccc2)o1 [CBK269642] | 75.3777
COc1ccc(OC)c2[nH]c(C(=O)N3CCCC34CC=CC4)cc12 [CBK282814] | 135.501
O=C(CN1CCOCC1)Nc1ccc(Cl)cc1C(=O)c1ccccc1 [CBK086450] | 100
O=C(OCc1nc2cc3ccccc3cc2[nH]1)C1CCCCC1 [CBK018307] | 159.484
